Results on 11 molecules are retold here after paper doi:10.1101/2025.06.16.659960.

By UniProt entry, the sequences of proteins in these tests, tags left out.
UniProt G5EFM9: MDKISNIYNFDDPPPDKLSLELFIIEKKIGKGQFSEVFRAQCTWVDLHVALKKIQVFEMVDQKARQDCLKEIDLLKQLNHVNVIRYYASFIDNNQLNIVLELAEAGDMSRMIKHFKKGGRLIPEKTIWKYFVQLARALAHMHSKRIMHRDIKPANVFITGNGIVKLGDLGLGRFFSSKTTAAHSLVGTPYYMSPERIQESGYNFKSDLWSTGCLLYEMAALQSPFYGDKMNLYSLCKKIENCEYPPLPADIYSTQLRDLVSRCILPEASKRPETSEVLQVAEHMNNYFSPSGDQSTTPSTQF
UniProt G5EDY0: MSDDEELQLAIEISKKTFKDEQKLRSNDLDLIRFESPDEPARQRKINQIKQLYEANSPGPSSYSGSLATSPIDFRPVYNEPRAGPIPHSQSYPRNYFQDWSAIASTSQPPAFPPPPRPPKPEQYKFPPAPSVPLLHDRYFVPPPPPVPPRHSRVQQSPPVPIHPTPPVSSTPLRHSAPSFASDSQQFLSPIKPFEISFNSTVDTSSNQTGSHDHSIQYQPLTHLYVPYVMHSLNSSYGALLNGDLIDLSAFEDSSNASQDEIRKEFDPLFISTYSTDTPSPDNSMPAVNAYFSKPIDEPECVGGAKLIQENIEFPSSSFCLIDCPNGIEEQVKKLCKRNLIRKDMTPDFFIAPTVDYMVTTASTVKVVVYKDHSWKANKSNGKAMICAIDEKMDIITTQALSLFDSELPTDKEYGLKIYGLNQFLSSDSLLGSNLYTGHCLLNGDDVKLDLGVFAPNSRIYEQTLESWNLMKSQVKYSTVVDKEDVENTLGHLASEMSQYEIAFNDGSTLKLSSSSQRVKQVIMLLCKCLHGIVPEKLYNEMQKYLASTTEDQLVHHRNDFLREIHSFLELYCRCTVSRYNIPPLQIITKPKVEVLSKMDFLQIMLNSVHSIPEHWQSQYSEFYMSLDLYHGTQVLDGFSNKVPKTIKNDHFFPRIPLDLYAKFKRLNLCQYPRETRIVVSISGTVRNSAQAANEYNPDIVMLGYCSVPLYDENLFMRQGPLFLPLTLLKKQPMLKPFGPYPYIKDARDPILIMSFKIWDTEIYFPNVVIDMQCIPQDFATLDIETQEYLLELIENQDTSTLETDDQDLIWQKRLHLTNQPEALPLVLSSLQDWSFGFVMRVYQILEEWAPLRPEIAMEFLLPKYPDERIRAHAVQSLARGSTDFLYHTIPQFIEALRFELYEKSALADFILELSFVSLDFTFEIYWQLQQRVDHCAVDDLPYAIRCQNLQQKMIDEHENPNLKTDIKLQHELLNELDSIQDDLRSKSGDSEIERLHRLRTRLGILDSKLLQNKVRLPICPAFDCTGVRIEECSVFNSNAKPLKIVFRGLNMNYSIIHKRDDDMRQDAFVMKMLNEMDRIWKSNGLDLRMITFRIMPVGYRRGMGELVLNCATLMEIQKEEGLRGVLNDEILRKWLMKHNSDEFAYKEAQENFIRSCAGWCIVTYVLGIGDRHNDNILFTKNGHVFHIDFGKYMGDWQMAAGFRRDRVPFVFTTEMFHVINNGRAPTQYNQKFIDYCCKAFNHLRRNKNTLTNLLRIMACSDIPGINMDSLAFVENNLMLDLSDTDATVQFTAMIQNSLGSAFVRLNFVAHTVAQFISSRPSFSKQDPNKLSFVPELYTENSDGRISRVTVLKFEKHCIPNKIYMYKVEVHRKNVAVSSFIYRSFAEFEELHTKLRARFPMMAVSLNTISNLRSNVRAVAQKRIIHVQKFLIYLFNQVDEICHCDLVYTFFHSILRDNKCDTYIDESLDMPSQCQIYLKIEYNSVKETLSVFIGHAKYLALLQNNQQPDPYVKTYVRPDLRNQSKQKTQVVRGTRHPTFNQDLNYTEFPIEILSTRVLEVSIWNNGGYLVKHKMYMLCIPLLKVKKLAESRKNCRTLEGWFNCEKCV

Where two headings read alike, the source gives them in different places. These are yes or no findings as the source states them, for the method shown. Binding seen in cells or lysates may run through a third protein. Here binding means that the protein was enriched with, or labelled near, the bait; the list need not be complete.

What all share (experiment): proximity labelling
For experiment [1], the target named is T1, NEKL-2::TurboID (C. elegans) (UniProt O01775).
T1 sequence: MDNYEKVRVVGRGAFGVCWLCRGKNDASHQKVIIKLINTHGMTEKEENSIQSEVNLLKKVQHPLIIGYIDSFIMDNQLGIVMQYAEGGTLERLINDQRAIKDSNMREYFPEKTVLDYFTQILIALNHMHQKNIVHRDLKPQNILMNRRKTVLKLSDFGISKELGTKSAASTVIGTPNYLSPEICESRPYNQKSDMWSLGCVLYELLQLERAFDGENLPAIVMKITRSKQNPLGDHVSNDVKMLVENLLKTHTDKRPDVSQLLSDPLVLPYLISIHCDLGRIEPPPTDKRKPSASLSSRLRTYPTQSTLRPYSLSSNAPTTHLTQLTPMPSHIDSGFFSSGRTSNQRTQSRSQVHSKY

In experiment [2] the target is T2, TurboID::NEKL-2 (C. elegans) (UniProt O01775).
T2 sequence: T1 sequence

The target of experiment [3] is NEKL-3::TurboID (C. elegans) (UniProt G5EFM9).
The target in experiment [4] is MLT-3::TurboID (C. elegans).
Experiment [5] deals with T1, NEKL-2::TurboID (C. elegans). This is another data set of the same source.

As to “MLT-3 (C. elegans (endogenous in worms))”, the binding entry in experiment [1] was “binds”. As to “MLT-4 (C. elegans (endogenous in worms))”, the binding result in experiment [1] is “binds”. Regarding “FCHO-1 (C. elegans (endogenous in worms))”, the binding entry in experiment [1] is recorded as “binds”.

NEKL-3 (from UniProt G5EFM9 1-302): the binding result in experiment [1] is “binds”. Consider PIKI-1 (from UniProt G5EDY0 1-1607), for which, in experiment [1], the binding result is recorded as “binds”. As for MLT-2 (from UniProt Q17583), the binding result in experiment [1] and in experiment [2] was “binds” throughout.

As to “EEA-1 (C. elegans (endogenous in worms))”, the binding result in experiment [1] is “binds”.

B1: UNC-16 (protein, UniProt P34609 1-1190)
chain: MACNLSPVNEMADSITSSTPSEIVYGGPGSPDEHRTMSDKVQTMASAIYRELETMIKVHGEDGVKTLMPLVVNVLEALDLAYLERDEQTAELEMLKEDNEQLQTQYEREKALRKQTEQKYIEIEDTLIGQNKELDKKIESLESIMRMLELKAKNATDHASRLEEREVEQKLEFDRLHERYNTLLRTHVDHMERTKYLMGSEKFELMQNMPLPNMQLRNKMGMAASVDASSIRGVSDLISAHMTQSTTMDVNLANHITNEDWQDEFSSDIEPSPRDIPQSSADALTSPITTKEPTPKREAASPKQSEEEEADETTSVDPKENNDLLGADLTDDESDWNGLGLIPRRHRPNEMLDDDDTSDDGSLGMGREVENLIKENSELLDMKNALNIVKNDLINQVDELNSENMILRDENLSRQMVSEKMQEQITKHEEEIKTLKQKLMEKENEQEEDDVPMAMRKRFTRSEMQRVLMDRNAYKEKLMELEESIKWTEMQRAKKMQQQQQNVNQKKSGGIWEFFSSLLGDSVTPPASSRGNRASSSRGKMTRSVEYIDPDMISERRAAERREQYKLVREHVKKEDGRIEAYGWSLPNVEAEVSSVPIPVCCRPLLDNEPSLKIWCATGVVLRGGRDERGQWIVGDPIYFAPASMKKTKTSNHRPELEDEIKRARNLDARESELDEWQSSSLVWVVSSNQGKSLIAVLDANNPNNIIETFPACDSHLLCIQAVSGVMEGEPEMNEEQSKKYLSGGGKIKDLPEGLDGTDLGACEWVELRKMEDSEDGVPTYCSNDMKPSPKRTRDFSISEVAPVDSSAPVKEDPLPPPANRPGGRAALPPHIRDAMSKYDGVSGQMSGALPTVWMGGQNQYIYIHSAVTAWKQCLRRIKMPDAVLSIVHYKSRIFAALANGTIAIFHRNKHGEWSDEGYHSLRVGSATSSVRSLCLVSTNIWATYKNCVVVLDAESLQIVKVFAAHPRKDSQVRNMQWVGAGVWLSIRLDSTLRLYHAHTYEHLQDVDIEPYVTKMLGTSKLDFSYMRTTALLVSNRRLWIGTGTGVIISVPFSGQLEKKIETKDSKRPAGPGGLVRVYGATSENATNDEKTNDDFIPYCNLAHAQLSFHGHKDSVKFFLGVPGASKNGEDESAEVTLRRMLIMSGGDGYIDFRIGEENEPELTGQSIRPRDMSHLIIWEVDAELPILSK
As for B1, in experiment [3], the binding result is given as “binds”.

B2: NEKL-2 (protein, UniProt O01775 1-357)
chain: T1 sequence
Turning to B2, in experiment [4], the binding entry is “binds”.

B3: TAT-1 (protein, UniProt Q9U280 1-1139)
chain: MPTEARDNNRHIHLGKVRDPHHQHAQRFCSNRISTCKYNGFSFLPRFLYEQFRRYNNIFFLAIALLQQIPDVSPTGRYTTAVPFLIILSVSALKEIFEDVKRRRSDNKVNAFSVEILVDGHWIEKQWKDVSVGDFIRIDNDSLFPADLLLLASSEQQGMAYIETSNLDGETNLKIKQALDITSTMTSPEKLSQFESEITCEPPSRHVNEFNGNIEINGVARHFGIDQLLLRGARLKNTAWIFGAVIYTGHDSKLLMNSKRAPLKSGTIDVQTNYRIIFLFFVLVALALISATGSEIWRGNNIPQAWYLSFLEHDPKGSFLWGVLTFFILYNNLIPISLQVTLEVVRFFQAIYINNDIEMYDVNSDSCAIARTSNLNEELGQVKFIMSDKTGTLTRNVMKFKRLSIGSRNYGNNEDDEFADASLIEDYRQGDEHSTSILEVLKMMAVCHTVVPENKDGQLIYQSSSPDEAALVRGAASQSVSFHTRQPQKVICNVFGEDETIEILDVIDFTSDRKRMSVIVRDGAGGDIKLYTKGADTVIFERLEHGKEQEEAVEYCTEHLEDYASFGYRTLCFSMRHLTEQEYSQWAPEYKKAILAIDNRAKLLADAAEKLERNMILVGATAIEDKLQEWVPETIQALMAADIRVWMLTGDKRETAINIAHSCALCHTNTELLIVDKTTYEETYQKLEQFVARAIELEKQEKGFAMVIDGKSLLHALTGEARKHFGDLALRCHAVVCCRMSPMQKAEVVEMVRKLAKHVVLAIGDGANDVAMIQAANVGVGISGEEGLQAASASDYAIPRFHFLRRLLLVHGAWNHDRSVKVILYSFYKNICLYIIELWFAMFSAWSGQTIFERWTIGMFNVIFTAWPPVVLGLFDHPVPAEQIMKYPALYASFQNRAFSIGNFSLWIGLAIVHSLSLFFLTYATMEHQVVWDNGLTGGWLMLGNCAYTFVVATVCFKALLECDSWTWPVVVACIGSIGLWIVFVIVYSLVFPHIGGIGADMAGMAAIMMSSYTFWLALLFIPLATLLWDLVIKSLFTIAMPTPRELAVMYNKRTTSFNGFERLASYSSNVLENMRLLTSSLRGSTTGSTRSRTASEASLALAEQTRYGFAFSQDESSAVAQTELIRNVDSTREKPTGR
Consider B3, for which, in experiment [5], the binding entry is “binds”.

B4: CDC-37 (protein, UniProt O02108 1-370)
chain: MPIDYSKWKDIEVSDDEDDTHPNIDTPSLFRWRHQARLERMAEKKMEQEKIDKEKGTTSKKMEELEKKLAAADVTDKSDIQKQIDEVKAQEEAWRKKEAELEEKERLEPWNVDTIGHEAFSTSRINKITEKKPQAPKTDEEDTHAMSTFFETHESLLEKMAVLKNGAKSTELFLAEHPHMASEYTANWLTIEALNAAIDFNEEKMKTMAEQCIIIQYLLELSKSLNAVATNTTVQKQFFKKFEAAEPVYMKHYQDEVKAFEDRLRTRAQTKRDAAMEEAEAEEKAERMKSAPGGIDPQEVFEQLPEEMRKCFEAHDIEALKGVAQKMDEEVFKYHFDRCIASGLWVPGKADDDDDDEEAAPAEEEPTTSS
In the case of B4, the binding entry in experiment [5] was “binds”.
